Results are given in words; binding and its absence hold for the method and conditions named. Some binding calls cover weakened binding; strength is not graded here.
Target: RABV nucleoprotein lacking its N-terminal arm (N[change], residues 24-450) (rabies virus (strain CVS-11)) (UniProt Q8JXF6)
Test: fluorescence polarisation

P42 labeled with FAM at its N-terminus (from UniProt P22363 1-42) (peptide)
binding: binds
